Results of single-concentration screens

A: 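Phenotypic screen: M. tuberculosis growth, glucose 7H9 medium, 3 days; the read-out is not stated. Concentration: 50 µM. The record gives no direction; compounds that gave an IC50 in retests scored well above the rest, so higher reads as more growth inhibition. About 69,000 compounds were tested under these conditions; 1.1% (about 760) showed 50% or more at least once.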
B: 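Whole-cell growth test on Mycobacterium tuberculosis, read after 4 days in a medium based on cholesterol and the lipid DPPC; the read-out is not stated. Compounds at 50 µM. Higher reads as more growth inhibition (inferred: compounds with an IC50 in retests scored well above the rest). Size under these conditions: about 69,000 compounds, about 370 of them at 50% or above in at least one test.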

Each number is a percent effect as filed. How 0% and 100% were set is not recorded. Most values in the screen are low, and negative values occur. The compounds are a random part of those screened. Two or more numbers in one place are separate tests of the same structure; such repeats can differ widely.

| Compound | A | B |
|---|---|---|
| `[H][C@]12CC[C@]([H])(CN(Cc3cscn3)C1)N(C(=O)Cc1cnccn1)C2` | -7.382 | -20.45 |
| `CC(C)C(=O)N1CCCC(c2cncc(Oc3cccnc3)n2)C1` (centres undefined) | -0.2736 | -1.428 |
| `COc1ncc(C(=O)N2CCCC3(C=Cc4ccccc4O3)CC2)cn1` (centres undefined) | -32.83 | -17.01 & 15.91 |
| `[H][C@]12CN(C(=O)c3cnn(C)c3)CC[C@@]1(O)CCN(C1CCCCC1)C2` | -8.472 & 5.506 | 2.314 & -2.867 |
| `CN(C)Cc1nnc(C2CCN(c3nccc(N)n3)CC2)n1C1CC1` | -7.234 & -3.691 | -5.978 |
| `CC(=O)NCc1ccc(S(=O)(=O)NC(=O)c2ccc3c(c2)CCO3)s1` | 28.24 | -13.75 |
| `N#CCCCOc1cccc(CN2CCCC2c2ccc[nH]2)c1` (centres undefined) | -7.744 & 9.046 | 8.763 |
| `CCn1cnnc1C1CCN(C(=O)Cc2ccc(OC)c(F)c2)CC1` | -21.23 | -2.767 & 4.151 |
| `O=C(COc1ccccc1F)N1CCCCC1c1ccn2ccnc2n1` (centres undefined) | 5.666 | 6.923 |
| `c1cnc(N2CCCC3(CCN(Cc4ccsc4)C3)C2)nc1` (centres undefined) | 9.696 | 8.609 |
| `Cc1cc(CC2COCCN(CCc3ccccc3)C2)ncn1` (centres undefined) | 8.051 | 10.25 |
| `COC[C@H](C)Nc1cc(C)c2ccc(SC)cc2n1` | 38.92 | 43.23 |
| `CN(Cc1ccco1)C(=O)[C@H]1CSCN1C(=O)OC(C)(C)C` | 14.33 | 2.037 |
| `CC(=O)Nn1c(C)cc(CN2CCC(c3ccncc3)CC2)c1C` | -7.417 | -4.675 & -6.501 |
| `O=C(O)C(F)(F)F.[H][C@]12CCN(C(=O)c3cc[nH]n3)CC[C@@]1([H])S(=O)(=O)N(Cc1ccccc1)C2` | -21.9 & -3.792 | -6.221 |
| `CCC(=O)N1CSCC1C(=O)Nc1ccccc1-c1cccs1` (centres undefined) | -26.11 | -32.15 |
| `COCCN(Cc1ccccc1C)c1nc(C)nc2oc(C)nc12` | 3.957 | -8.89 |
| `Cc1nc(C(C)C)cc(N2CCC3(CCC(=O)N(CC4CC4)C3)CC2)n1` | -4.406 & -29.92 | -16.14 |
| `O=C(c1ccco1)N1CCCC(c2cc(C(F)(F)F)n3ncnc3n2)C1` (centres undefined) | 8.514 | -42.67 |
| `CC(C)c1nccn1CC(=O)Nc1ccnn1C(C)C(C)C` (centres undefined) | -4.07 | 2.404 |
| `Cc1cc(NCC2CCCO2)cc(=O)n1C` (centres undefined) | -18.91 | -26.97 |
| `Cc1nn(C)c(=O)c2nn(-c3cccc(Cl)c3)c(C)c12` | -2.029 & -9.168 | 18.14 |
| `Cc1cc(=O)[nH]c(NC2CCN(S(=O)(=O)c3ccccc3)CC2)n1` | 3.902 | 12.84 & -1.737 |
| `CCn1cnnc1CNC(=O)N1CCN(c2nc(C)c(C)s2)CC1` | 17.76 | 3.146 |
| `CC(=O)NCCC1CCN(c2nc(C(C)(C)C)nc3c2cnn3C)CC1` | 14.08 | -4.388 |
| `CCn1cnnc1CNC(=O)N1CCN(Cc2ccccc2)CC1` | 8.319 | -11.97 |
| `Cc1cc(NC(=O)C(C)N2CCN(c3ccc(C#N)cc3F)CC2)no1` (centres undefined) | 26.83 | 24.2 |
| `CCc1nc(CN2CCCN(c3ncnc4ccsc34)CC2)no1` | -2.197 & 14.44 | -1.124 |
| `Cc1c(Cl)c(C(=O)N2CC(c3cccnc3)C2)nn1C` | 11.55 | -1.795 |
| `CCN(CC)c1ccc(C(=O)N2CCCC(n3cncn3)C2)cn1` (centres undefined) | -7.168 | -18.41 |
| `O=C(O)C(F)(F)F.O=C(c1cscn1)N1CCc2ncnc(-c3cccnc3)c2CC1` | -41.58 | -2.811 |
| `Cc1nc(N)nc(C)c1CC(=O)NCc1ccc2nonc2c1` | -16.21 | -11.17 |
| `COCC[C@]1(O)CCN(C(=O)c2cnn(C)c2)C[C@H]1C` | -3.837 | -7.598 |
| `Cc1cnc(N2CCC3(CCCN(c4ccc(C)nn4)C3)C2)nc1` (centres undefined) | -61.58 | -42.65 |
| `CCNC(c1cccnc1)c1ccc(F)c(F)c1` (centres undefined) | -8.538 | -3.344 |
| `CN1CCCCC12Cc1ccccc1CN(C(=O)C1CCCC1)C2` (centres undefined) | -2.673 | -19.74 |
| `Cc1noc(C2CCN(C(=O)c3c(C)noc3C)CC2)n1` | -5.699 | -11.99 |
| `CN(CCOc1ccc(C#N)cc1)CC1CC1` | -3.479 | -8.839 |
| `O=C(c1cnco1)N1CCC(Cc2ccc3ncccc3c2)CC1` | -16.8 | -20.35 & -3.673 |
| `COc1ccccc1CCc1nc(CC2CCN(C)CC2)no1` | -21.42 | 26.07 |
| `CO[C@@H]1CCC[C@@H](NC(=O)c2cccc(F)c2)[C@H]1O` | 8.202 | 3.427 & -3.186 |
| `COc1ccc2c(c1)OCC(Cc1ccc(N)cn1)C2` (centres undefined) | 18.76 | -7.965 |
| `Cn1cc(CN2CCc3nc(-c4ccccn4)nc(O)c3C2)cn1` | -9.059 | 16.23 |
| `Cc1ccc(OCCNC(=O)C(C)n2cncn2)cc1` (centres undefined) | -15.59 | -13.72 |
| `Cc1cc(C)n(CC2CCCN2C(=O)Cc2cn3ccsc3n2)n1` (centres undefined) | 2.539 | -10.37 |
| `CCCN1CCc2[nH]cnc2C12CCN(C(=O)CCn1cccn1)CC2` | -28.79 & 2.557 | -4.939 |
| `CC1(C)OCC2(CO1)CN(C(=O)c1ccccc1Br)C2` | 2.221 & 2.558 | 11.94 |
| `CN(C(=O)NCCCNc1ccccn1)C1CCS(=O)(=O)C1` (centres undefined) | -0.5831 & -1.286 | -7.732 |
| `CN(C)c1cc(C(=O)N2CCCCCC2)ccn1` | -9.567 | -8.734 |
| `CNC(=O)N1CCc2cc(C(=O)NCC3CC3)c(NC(C)C)nc2CC1` | -13.82 & 3.031 | -22.71 |
| `Cc1cccc(COc2ccc(C(C)NC(=O)CNC(N)=O)cc2)c1` (centres undefined) | 46.99 | 43.29 |
| `COc1ccc(C(=O)NS(=O)(=O)c2ccc(CNC(C)=O)s2)cc1` | 5.345 | -23 |
| `COC(=O)N1CCc2ccccc2C1C(=O)NCc1ccco1` (centres undefined) | 5.838 & 5.628 | 5.933 |
| `CN(Cc1cccc(F)c1)S(=O)(=O)N1CCOCC1` | -2.845 & -5.532 | -7.969 |
| `O=C(O)C(=O)O.c1cnc(-c2noc(C3CN(Cc4ccsc4)C3)n2)cn1` | 4.497 & 33.52 | 25.99 |
| `N#Cc1csc(CNCCOc2ncccc2Cl)c1` | -15.16 | -12.87 & 6.34 |
| `O=C(NCCn1ccc(-c2ccccn2)n1)C1CCC1` | 1.789 | 8.166 |
| `Cc1ccc(OCC2CCCN(Cc3ccc(CO)o3)C2)cc1` (centres undefined) | -1.956 & 4.347 | -8.985 |
| `[H][C@@]12CS(=O)(=O)C[C@]1([H])N(Cc1cccc(OC)c1)CCN2CCC` | -5.298 | 12.26 |
| `Cc1cc(-n2cccn2)ccc1CN1CCOCC(CN(C)C)C1` (centres undefined) | -5.439 & 2.95 | 0.4114 |
| `Nc1nnc(CCCNc2ncnc3c2CCN(C(=O)C2CC2)C3)s1` | 30.32 | 16.03 |
| `Cc1nc(N2CCCC(OCc3ccccn3)C2)c2c(C)noc2n1` (centres undefined) | 0.9288 & -25.68 | -5.45 |
| `O=c1n(CCNc2cccc3ccccc23)nc2ccccn12` | 9.675 | -8.012 & 5.593 |
| `CC(C)N1CCCC(CNC(=O)c2ccnc(-n3ccnc3)c2)C1` (centres undefined) | 30.38 | -3.055 |
| `O=C(NC1CCS(=O)(=O)C1)c1ccc(SCc2cscn2)cc1` (centres undefined) | -6.469 | -13.96 |
| `COC(=O)COc1cccc(NS(=O)(=O)c2cc(C(=O)O)cs2)c1` | -45.42 | 0.1871 |
| `Cc1noc(Cl)c1CC(=O)N1CCC(Nc2cccnn2)CC1` | 9.7 | 0.229 |
| `CCn1cnnc1CNC(=O)N(C)Cc1ccc2c(c1)OCO2` | -8.123 | -13.81 |
| `O=C(O)C(F)(F)F.O=C(O)C(F)(F)F.c1cnc(N2CCOC3(CCN(CC4CCCCC4)CC3)C2)nc1` | -9.443 | -14.14 |
| `c1csc(CN2CCC3(CC2)COCCN3CC2CC2)n1` | -0.9537 & 8.185 | 19.7 |
| `Cc1nnc(CN2CCN(C)C3(CCNC(=O)CC3)C2)s1` (centres undefined) | 26.12 | 10.52 |
| `NC(=O)CN1CCC(c2cc(C(F)(F)F)n3ccnc3n2)CC1` | 18.6 | -14.35 |
| `CC(C)c1noc(CCC(=O)NC2CCS(=O)(=O)C2)n1` (centres undefined) | -9.837 | -10.66 |
| `COc1cc2c(cc1CN1CCc3sccc3C1C)OCO2` (centres undefined) | -1.639 | 11.03 |

5 of the entries, repeated:

Compound	A	B
Cc1cc(NCC2CCCO2)cc(=O)n1C (centres undefined)	-18.91	-26.97
COC(=O)N1CCc2ccccc2C1C(=O)NCc1ccco1 (centres undefined)	5.838 & 5.628	5.933
N#Cc1csc(CNCCOc2ncccc2Cl)c1	-15.16	-12.87 & 6.34
O=C(O)C(F)(F)F.O=C(O)C(F)(F)F.c1cnc(N2CCOC3(CCN(CC4CCCCC4)CC3)C2)nc1	-9.443	-14.14
O=C(NC1CCS(=O)(=O)C1)c1ccc(SCc2cscn2)cc1 (centres undefined)	-6.469	-13.96

Source: ChEMBL document CHEMBL3988442, “University of Dundee, Small-Polar-MMV Screening Library” (2021).